Assay results: article PMC5415106

Sequences of proteins named here, by UniProt entry; tags and fusion partners are left off.
UniProt Q92547, whole entry: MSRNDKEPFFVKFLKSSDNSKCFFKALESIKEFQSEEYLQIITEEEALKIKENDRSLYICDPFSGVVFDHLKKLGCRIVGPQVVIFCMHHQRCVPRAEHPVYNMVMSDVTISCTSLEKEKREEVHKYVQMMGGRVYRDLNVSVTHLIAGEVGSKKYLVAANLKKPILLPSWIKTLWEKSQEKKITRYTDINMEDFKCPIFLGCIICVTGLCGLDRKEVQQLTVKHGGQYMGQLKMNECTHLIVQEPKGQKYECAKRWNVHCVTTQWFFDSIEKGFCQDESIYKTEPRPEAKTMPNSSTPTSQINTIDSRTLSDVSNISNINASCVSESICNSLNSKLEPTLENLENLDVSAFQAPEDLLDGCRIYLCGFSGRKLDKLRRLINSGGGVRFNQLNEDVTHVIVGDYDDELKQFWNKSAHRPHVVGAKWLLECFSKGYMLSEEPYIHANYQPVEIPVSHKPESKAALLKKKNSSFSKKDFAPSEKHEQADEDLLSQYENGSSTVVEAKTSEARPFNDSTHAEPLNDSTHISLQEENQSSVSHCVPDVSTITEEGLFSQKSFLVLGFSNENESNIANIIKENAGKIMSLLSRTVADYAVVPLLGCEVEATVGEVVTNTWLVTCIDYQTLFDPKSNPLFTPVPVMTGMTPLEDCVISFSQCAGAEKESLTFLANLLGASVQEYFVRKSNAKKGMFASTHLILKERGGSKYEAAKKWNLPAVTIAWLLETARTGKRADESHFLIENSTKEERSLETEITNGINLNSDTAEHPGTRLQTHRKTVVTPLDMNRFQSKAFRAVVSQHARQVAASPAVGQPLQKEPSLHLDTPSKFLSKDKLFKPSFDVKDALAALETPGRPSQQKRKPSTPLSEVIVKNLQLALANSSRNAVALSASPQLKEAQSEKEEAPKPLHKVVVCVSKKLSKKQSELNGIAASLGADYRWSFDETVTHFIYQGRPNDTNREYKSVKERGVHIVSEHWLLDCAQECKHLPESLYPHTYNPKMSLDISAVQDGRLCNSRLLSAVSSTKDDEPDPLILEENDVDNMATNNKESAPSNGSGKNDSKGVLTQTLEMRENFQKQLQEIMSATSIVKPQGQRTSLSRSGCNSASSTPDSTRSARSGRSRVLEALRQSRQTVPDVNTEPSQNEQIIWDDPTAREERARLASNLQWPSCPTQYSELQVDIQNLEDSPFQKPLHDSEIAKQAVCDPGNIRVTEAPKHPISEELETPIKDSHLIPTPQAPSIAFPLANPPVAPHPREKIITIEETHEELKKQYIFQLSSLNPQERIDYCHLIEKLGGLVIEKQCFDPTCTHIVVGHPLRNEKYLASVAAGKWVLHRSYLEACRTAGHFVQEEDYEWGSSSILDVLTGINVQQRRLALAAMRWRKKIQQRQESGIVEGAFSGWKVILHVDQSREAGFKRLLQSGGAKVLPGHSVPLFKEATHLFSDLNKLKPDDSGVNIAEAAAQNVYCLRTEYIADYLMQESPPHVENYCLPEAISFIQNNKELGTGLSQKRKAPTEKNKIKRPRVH

Legend:
[1] = biological target: TopBP1 full-length (Homo sapiens) (UniProt Q92547); experiment: EMSA; conditions: less than 50% shifted up to 320 nM, authors say weak, EMSA: 1 nM 32P-DNA, 20 mM Tris-HCl pH 7.5, 0.1 mM EDTA, 0.2 mM DTT, 10% glycerol, 5 min at 30 C, 0.7% native agarose in 0.5x TBE, recombinant protein, residues 1-1522, label: 32P
[2] = biological target: TopBP1 N-terminal region (Homo sapiens) (UniProt Q92547); experiment: EMSA; conditions: up to 320 nM protein; EMSA: 1 nM 32P-DNA, 20 mM Tris-HCl pH 7.5, 0.1 mM EDTA, 0.2 mM DTT, 10% glycerol, 5 min at 30 C, 0.7% native agarose in 0.5x TBE; recombinant protein; label: 32P; folded or branched DNA

## ATGTCCTAGCAAGCCAGAATTCGGCAGCGTC (double strand) [blunt dsDNA]
[1]
  half-maximal binding: > 320 nM

## ATGTCCTAGCAAGCCAGAATTCGGCAGCGTCTTTTTTTTTTTTTTTTTTTTTTTTTTTTTTTTTTTTTTTTTTTTTTTTTTTTTTTTTTTTTTTTTTTTTTTTTTTTTTTTCCACGTCGGCGTCGCCACGAGC / GCTCGTGGCGACGCCGACGTGGTTTTTTTTTTTTTTTTTTTTTTTTTTTTTTTTTTTTTTTTTTTTTTTTTTTTTTTTTTTTTTTTTTTTTTTTTTTTTTTTGACGCTGCCGAATTCTGGCTTGCTAGGACAT [bubble DNA]
[2]
  binding result: no binding

## TTTTTTTTTTTTTTTTTTTTTTTTTTTTTTTTTTTTTTTTTTTTTTTTTTTTTTTTTTTTTTTTTTTTTTTTTTTTTTTT [ssDNA (dT80)]
[1]; single-stranded DNA
  half-maximal binding: > 320 nM

For part of these data: The exact form of at least one protein or probe is not confirmed. For part of these data: A negative result means that nothing was seen under these conditions.
